Assay results published in doi:10.1101/2022.08.31.505651.
These are yes or no findings as the source states them, for the method shown. In cells and extracts the contact can be indirect. Some results given as binding are weak or reduced against the parent protein; the word gives no strength. Sequences can lack the tags named with a protein.

Experiments:
Test in all cases: co-IP
[1] = biological target: T1, 3xFLAG-NEK1 aa 1160-1286 (NEK1-CID) (human) (UniProt Q96PY6)
T1 sequence: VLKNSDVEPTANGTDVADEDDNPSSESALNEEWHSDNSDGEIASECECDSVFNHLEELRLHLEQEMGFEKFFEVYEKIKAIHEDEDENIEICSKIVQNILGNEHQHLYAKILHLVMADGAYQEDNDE

[2] = biological target: T2, 3xFLAG-NEK1 full length (1-1286) (human) (UniProt Q96PY6)
T2 sequence: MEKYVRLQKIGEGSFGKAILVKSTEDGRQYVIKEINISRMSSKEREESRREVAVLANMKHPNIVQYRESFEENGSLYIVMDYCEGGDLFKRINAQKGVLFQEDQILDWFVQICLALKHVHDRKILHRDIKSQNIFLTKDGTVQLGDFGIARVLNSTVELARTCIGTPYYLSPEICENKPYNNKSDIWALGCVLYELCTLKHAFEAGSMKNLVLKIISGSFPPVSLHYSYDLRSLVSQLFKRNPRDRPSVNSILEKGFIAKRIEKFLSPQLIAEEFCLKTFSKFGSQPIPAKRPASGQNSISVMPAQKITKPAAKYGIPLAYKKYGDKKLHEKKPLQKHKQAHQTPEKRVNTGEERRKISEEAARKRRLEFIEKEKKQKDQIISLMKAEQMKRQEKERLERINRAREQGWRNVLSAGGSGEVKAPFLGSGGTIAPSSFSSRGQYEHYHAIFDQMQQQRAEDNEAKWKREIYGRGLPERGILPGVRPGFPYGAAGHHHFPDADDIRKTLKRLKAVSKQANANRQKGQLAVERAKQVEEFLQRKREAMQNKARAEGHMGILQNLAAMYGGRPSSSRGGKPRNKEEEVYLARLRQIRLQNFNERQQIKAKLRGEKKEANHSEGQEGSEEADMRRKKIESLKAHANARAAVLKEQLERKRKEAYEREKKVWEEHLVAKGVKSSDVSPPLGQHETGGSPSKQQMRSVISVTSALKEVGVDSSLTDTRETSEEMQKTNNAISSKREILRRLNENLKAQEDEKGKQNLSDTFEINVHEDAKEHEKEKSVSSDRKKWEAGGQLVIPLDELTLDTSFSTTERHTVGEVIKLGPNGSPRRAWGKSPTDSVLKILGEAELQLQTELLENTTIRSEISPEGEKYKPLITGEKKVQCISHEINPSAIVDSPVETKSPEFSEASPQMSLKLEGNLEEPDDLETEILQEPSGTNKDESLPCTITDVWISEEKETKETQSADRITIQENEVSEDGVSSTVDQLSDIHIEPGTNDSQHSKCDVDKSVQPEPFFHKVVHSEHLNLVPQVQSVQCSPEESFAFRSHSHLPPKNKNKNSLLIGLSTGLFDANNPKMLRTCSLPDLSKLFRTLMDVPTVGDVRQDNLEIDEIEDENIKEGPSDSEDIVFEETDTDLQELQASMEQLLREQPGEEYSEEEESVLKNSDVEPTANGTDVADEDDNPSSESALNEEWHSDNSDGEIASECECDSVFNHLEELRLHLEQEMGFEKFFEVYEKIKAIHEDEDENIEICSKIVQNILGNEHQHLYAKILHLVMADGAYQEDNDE

[3] = biological target: T3, 3xFLAG-NEK1 aa 760-1286 (C-terminal acidic domain) (human) (UniProt Q96PY6)
T3 sequence: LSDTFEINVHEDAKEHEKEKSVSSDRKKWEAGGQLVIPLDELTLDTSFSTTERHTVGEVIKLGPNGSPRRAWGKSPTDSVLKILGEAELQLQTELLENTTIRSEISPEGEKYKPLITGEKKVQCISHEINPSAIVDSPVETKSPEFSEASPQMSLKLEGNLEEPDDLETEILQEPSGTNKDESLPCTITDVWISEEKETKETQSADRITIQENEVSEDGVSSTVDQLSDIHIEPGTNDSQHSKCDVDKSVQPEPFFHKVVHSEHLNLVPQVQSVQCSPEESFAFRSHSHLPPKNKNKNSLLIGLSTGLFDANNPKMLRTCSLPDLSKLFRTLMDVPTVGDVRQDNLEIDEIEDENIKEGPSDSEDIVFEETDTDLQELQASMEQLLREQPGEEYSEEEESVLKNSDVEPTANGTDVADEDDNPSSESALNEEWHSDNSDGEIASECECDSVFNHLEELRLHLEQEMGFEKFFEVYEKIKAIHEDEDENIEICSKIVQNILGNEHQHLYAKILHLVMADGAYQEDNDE

[4] = biological target: T4, 3xFLAG-NEK1 aa 1-1160 (deletion of the CID) (human) (UniProt Q96PY6)
T4 sequence: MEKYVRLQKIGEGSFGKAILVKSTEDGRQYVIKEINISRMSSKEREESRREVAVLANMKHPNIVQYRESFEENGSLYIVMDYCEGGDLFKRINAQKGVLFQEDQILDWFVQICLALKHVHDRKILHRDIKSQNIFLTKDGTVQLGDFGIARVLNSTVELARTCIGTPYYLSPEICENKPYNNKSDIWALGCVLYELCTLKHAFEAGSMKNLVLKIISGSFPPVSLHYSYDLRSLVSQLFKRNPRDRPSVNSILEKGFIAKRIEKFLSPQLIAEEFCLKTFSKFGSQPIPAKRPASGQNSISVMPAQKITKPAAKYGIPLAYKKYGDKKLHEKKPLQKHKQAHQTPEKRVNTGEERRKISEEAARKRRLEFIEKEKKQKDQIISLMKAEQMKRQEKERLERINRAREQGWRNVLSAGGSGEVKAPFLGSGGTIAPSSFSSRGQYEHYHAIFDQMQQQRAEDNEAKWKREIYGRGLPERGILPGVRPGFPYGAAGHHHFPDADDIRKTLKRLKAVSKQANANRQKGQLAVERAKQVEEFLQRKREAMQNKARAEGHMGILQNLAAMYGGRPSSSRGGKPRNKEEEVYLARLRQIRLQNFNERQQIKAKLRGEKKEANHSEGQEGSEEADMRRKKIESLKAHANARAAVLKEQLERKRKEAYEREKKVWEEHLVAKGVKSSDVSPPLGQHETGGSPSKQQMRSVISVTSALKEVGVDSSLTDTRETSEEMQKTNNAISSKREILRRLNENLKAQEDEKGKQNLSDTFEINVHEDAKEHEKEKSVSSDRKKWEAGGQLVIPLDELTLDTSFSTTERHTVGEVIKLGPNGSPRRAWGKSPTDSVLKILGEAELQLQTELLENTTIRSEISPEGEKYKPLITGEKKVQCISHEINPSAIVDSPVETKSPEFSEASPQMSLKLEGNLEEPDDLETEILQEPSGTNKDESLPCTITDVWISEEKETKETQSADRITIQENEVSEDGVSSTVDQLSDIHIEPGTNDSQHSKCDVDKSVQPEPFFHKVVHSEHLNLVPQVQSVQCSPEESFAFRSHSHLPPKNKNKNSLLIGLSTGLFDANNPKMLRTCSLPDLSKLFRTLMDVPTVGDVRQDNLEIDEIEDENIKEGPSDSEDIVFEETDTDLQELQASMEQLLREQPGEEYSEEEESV

binding [1]: binds
binding [2]: binds
binding [3]: binds
binding [4]: no binding
B1: GFP-C21ORF2 (protein, UniProt O43822-1 1-256)
chain: MKLTRKMVLTRAKASELHSVRKLNCWGSRLTDISICQEMPSLEVITLSVNSISTLEPVSRCQRLSELYLRRNRIPSLAELFYLKGLPRLRVLWLAENPCCGTSPHRYRMTVLRTLPRLQKLDNQAVTEEELSRALSEGEEITAAPEREGTGHGGPKLCCTLSSLSSAAETGRDPLDSEEEATSGAQDERGLKPPSRGQFPSLSARDASSSHRGRNVLTAILLLLRELDAEGLEAVQQTVGSRLQALRGEEVQEHAE
